PubChem BioAssay AID504791 – Drosophila RNAi Screening Center, 2011
In all, the deposit lists about 23,000 reagents; this is a random part of those with a known target gene and a result. Over the whole deposit, 199 (0.86%) were called active. 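Plate-scaled ratios behind the calls are not deposited; printed light signals are raw; many rows marked increased or decreased are still called inactive.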 Names joined by + are all predicted targets of the reagent. No sequences are given here. The record does not give: the direction of the score.

Assay: 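Factors in Argonaute-based small RNA production and activity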 (primary screen)
System: Drosophila S2-derived reporter cells
Reagent: long dsRNA against Drosophila genes, about 150-250 ng dsRNA per well (siRNA assay); about 80-120 ng (miRNA assay)
Timing: about 5 days (siRNA assay); about 4 days (miRNA assay)
Treatment: copper sulfate induction of reporters: 25 µM (siRNA assay); 200 mM stated (miRNA assay), 1-2 days before reading
Measurement: 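Dual luciferase assay: Renilla to firefly signal ratio in each well, scaled to the mean ratio of its plate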
Active means: 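a well was a first-pass pick when its plate-scaled ratio rose above 1.5 (siRNA assay) or 1.6 (miRNA assay), or dropped below 0.6; a gene counted only if two separate dsRNAs agreed on retest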

gene knocked down | DRSC id | stable siRNA reporter change | miRNA reporter change | stable assay Renilla, run 1 (luminescence) | stable assay firefly, run 1 (luminescence) | outcome
CG31195 | DRSC13440 | – | – | 4688 | 4.34e5 | inactive
Pig1 (Pre-intermoult gene 1) | DRSC18698 | – | – | 3939 | 2.92e5 | inactive
Tpr2 (Tetratricopeptide repeat protein 2) | DRSC03461 | – | – | 15690 | 2.01e6 | inactive
CG17264 | DRSC00500 | – | – | 28044 | 2.39e5 | inactive
emc (extra macrochaetae) | DRSC08715 | – | – | 4275 | 3.57e5 | inactive
emc (extra macrochaetae) | DRSC23238 | – | – | 4271 | 2.81e5 | inactive
ppk8 (pickpocket 8) | DRSC17269 | – | – | 8475 | 3.87e5 | inactive
Srp72 (Signal recognition particle 72) | DRSC15800 | – | – | 10290 | 4.42e5 | inactive
GstO1 (Glutathione S transferase O1) | DRSC10688 | – | – | 7650 | 5.49e5 | inactive
CG14856 | DRSC14980 | – | – | 6572 | 3.27e5 | inactive
Clk (Clock) | DRSC11117 | – | – | 5906 | 3.09e5 | inactive
Chchd2 (Coiled-coil-helix-coiled-coil-helix domain containing 2) | DRSC19931 | – | – | 5183 | 5.12e5 | inactive
CG33258 | DRSC09415 | – | – | 5556 | 4.23e5 | inactive
CG13114 | DRSC02212 | – | – | 6508 | 4.01e5 | inactive
CG13231 | DRSC06351 | – | – | 6367 | 5.07e5 | inactive
CG3841 | DRSC02730 | – | – | 6963 | 3.22e5 | inactive
chrb (charybde) | DRSC11335 | – | – | 4643 | 3.84e5 | inactive
CG42336 | DRSC05273 | – | – | 6283 | 3.61e5 | inactive
CG42336 | DRSC06332 | – | – | 6758 | 4.01e5 | inactive
CG42336 | DRSC06333 | – | – | 6220 | 4.72e5 | inactive
CG40006 | DRSC03787 | – | – | 6431 | 5.33e5 | inactive
CG40006 | DRSC03809 | – | – | 6335 | 4.99e5 | inactive
CG40006 | DRSC03814 | – | – | 6451 | 3.55e5 | inactive
CG40006 | DRSC03817 | – | – | 5891 | 4.13e5 | inactive
CG13994 | DRSC02326 | – | – | 8088 | 4.05e5 | inactive
CG6454 | DRSC16044 | – | – | 9429 | 3.49e5 | inactive
CG11200 | DRSC06060 | – | – | 10187 | 3.23e5 | inactive
CG17385 | DRSC06664 | – | reporter ratio lowered past the hit cutoff | 5828 | 4.92e5 | active
AlaRS-m (Alanyl-tRNA synthetase, mitochondrial) | DRSC09660 | – | – | 8214 | 3.72e5 | inactive
BomBc2 (Bomanin Bicipital 2) | DRSC06502 | – | – | 4790 | 3.01e5 | inactive
CG31251 | DRSC16247 | – | – | 8047 | 5.74e5 | inactive
Ppat-Dpck | DRSC09744 | – | – | 7595 | 4.17e5 | inactive
Su(var)205 (Suppressor of variegation 205) | DRSC03446 | – | – | 26547 | 3.32e5 | inactive
CG32727 | DRSC17519 | – | – | 5747 | 3.64e5 | inactive
Fer2LCH (Ferritin 2 light chain homologue) | DRSC16672 | – | – | 6944 | 4.69e5 | inactive
CG33464 (retired record) | DRSC22936 | – | – | 4676 | 4.40e5 | inactive
tut (tumorous testis) | DRSC08909 | – | – | 4827 | 4.97e5 | inactive
dUTPase (Deoxyuridine triphosphatase) | DRSC01998 | – | – | 6623 | 4.84e5 | inactive
Alp12 (Alkaline phosphatase 12) | DRSC02515 | – | – | 6582 | 4.74e5 | inactive
CG31013 | DRSC16542 | – | – | 7418 | 4.22e5 | inactive
CARPB (Carbonic anhydrase-related protein B) | DRSC18437 | – | – | 2939 | 3.84e5 | inactive
CARPB (Carbonic anhydrase-related protein B) | DRSC18438 | – | – | 5895 | 4.86e5 | inactive
CG32812 | DRSC18478 | – | – | 7542 | 3.73e5 | inactive
svr (silver) | DRSC17293 | – | – | 6680 | 2.74e5 | inactive
svr (silver) | DRSC18841 | – | – | 6494 | 4.25e5 | inactive
ATPsyndelta (ATP synthase, delta subunit) | DRSC18248 | – | – | 3924 | 3.70e5 | inactive
Lam (Lamin) | DRSC03359 | – | – | 6859 | 5.04e5 | inactive
CG42346 | DRSC20622 | – | – | 4716 | 3.23e5 | inactive
CG42346 | DRSC20644 | – | – | 6427 | 4.84e5 | inactive
CG15317 | DRSC18005 | – | – | 6827 | 5.22e5 | inactive
PhKgamma (Phosphorylase kinase gamma) | DRSC20268 | – | – | 8234 | 5.03e5 | inactive
Nrx-IV (Neurexin IV) | DRSC11238 | – | – | 8913 | 4.55e5 | inactive
ssp6 (short spindle 6) | DRSC08791 | – | – | 4943 | 3.87e5 | inactive
ssp6 (short spindle 6) | DRSC10677 | – | – | 6447 | 3.55e5 | inactive
fz (frizzled) | DRSC11348 | – | – | 8295 | 3.98e5 | inactive
Alms1b + Alms1a | DRSC18559 | – | – | 8277 | 5.38e5 | inactive
CG17190 | DRSC15184 | – | – | 7114 | 3.93e5 | inactive
CG31781 (retired record) | DRSC02431 | – | – | 55663 | 1.60e6 | inactive
CG31781 (retired record) | DRSC02432 | – | – | 7958 | 6.33e5 | inactive
CG8950 | DRSC07300 | – | – | 9662 | 4.00e5 | inactive

Entries listed so far whose gene name starts with P or p (4):
gene knocked down | DRSC id | stable siRNA reporter change | miRNA reporter change | stable assay Renilla, run 1 (luminescence) | stable assay firefly, run 1 (luminescence) | outcome
Pig1 (Pre-intermoult gene 1) | DRSC18698 | – | – | 3939 | 2.92e5 | inactive
ppk8 (pickpocket 8) | DRSC17269 | – | – | 8475 | 3.87e5 | inactive
Ppat-Dpck | DRSC09744 | – | – | 7595 | 4.17e5 | inactive
PhKgamma (Phosphorylase kinase gamma) | DRSC20268 | – | – | 8234 | 5.03e5 | inactive

Additional reagents follow:
gene knocked down | DRSC id | stable siRNA reporter change | miRNA reporter change | stable assay Renilla, run 1 (luminescence) | stable assay firefly, run 1 (luminescence) | outcome
CG10510 | DRSC11614 | reporter ratio lowered past the hit cutoff | – | 4795 | 4.12e5 | inactive
Vm26Aa (Vitelline membrane 26Aa) | DRSC03472 | – | – | 6686 | 4.03e5 | inactive
CG7841 | DRSC10922 | – | – | 7783 | 4.04e5 | inactive
CG7953 | DRSC01902 | – | reporter ratio lowered past the hit cutoff | 6810 | 1.67e6 | inactive
ZnT41F (Zinc transporter 41F) | DRSC04850 | – | – | 8106 | 1.22e6 | inactive
CG6094 | DRSC02927 | – | – | 5999 | 5.53e5 | inactive
CG6094 | DRSC22705 | – | – | 3815 | 4.64e5 | inactive
lectin-21Ca | DRSC00541 | – | – | 7575 | 3.86e5 | inactive
CG17344 | DRSC02607 | – | – | 6595 | 3.94e5 | inactive
CG34203 | DRSC03855 | – | – | 5287 | 2.90e5 | inactive
fid (fire dancer) | DRSC14885 | – | – | 5878 | 2.62e5 | inactive
fid (fire dancer) | DRSC16464 | – | – | 7143 | 2.30e5 | inactive
CG31810 | DRSC01560 | – | – | 5059 | 2.65e5 | inactive
CR12628 + Mgstl | DRSC03702 | – | – | 5760 | 4.40e5 | inactive
CR12628 + Mgstl | DRSC20568 | – | – | 5890 | 4.55e5 | inactive
CG4849 | DRSC15662 | – | – | 9619 | 3.73e5 | inactive
CG30284 | DRSC22150 | – | – | 9318 | 6.23e5 | inactive
CG6805 | DRSC07011 | – | – | 9941 | 3.46e5 | inactive
CG3699 | DRSC18171 | – | – | 7367 | 3.88e5 | inactive
CG3699 | DRSC18642 | – | – | 6672 | 4.75e5 | inactive
CG11768 | DRSC14377 | reporter ratio raised past the hit cutoff | – | 6815 | 2.10e5 | inactive
CG11768 | DRSC23219 | – | – | 5206 | 3.75e5 | inactive
CG13113 | DRSC02211 | – | – | 9124 | 4.73e5 | inactive
CG34251 | DRSC09498 | – | – | 5604 | 4.01e5 | inactive
CG34251 | DRSC09500 | – | – | 6908 | 5.04e5 | inactive
lbk (lambik) | DRSC07178 | – | – | 9609 | 3.57e5 | inactive
CG6885 | DRSC10740 | – | reporter ratio lowered past the hit cutoff | 6014 | 3.98e5 | inactive
CG12118 | DRSC17813 | – | – | 7427 | 4.46e5 | inactive
CG3117 | DRSC00568 | – | – | 8647 | 5.78e5 | inactive
Ir10a (Ionotropic receptor 10a) | DRSC18891 | – | – | 5862 | 5.88e5 | inactive
Ir10a (Ionotropic receptor 10a) | DRSC19478 | – | – | 5960 | 4.60e5 | inactive
Ir10a (Ionotropic receptor 10a) | DRSC19479 | – | – | 5707 | 4.20e5 | inactive
T48 (Transcript 48) | DRSC16878 | – | – | 6158 | 3.99e5 | inactive
CG32488 | DRSC08549 | – | – | 6155 | 4.37e5 | inactive
CG32488 | DRSC21537 | – | – | 9746 | 5.94e5 | inactive
BicC (Bicaudal C) | DRSC02005 | – | – | 8477 | 4.94e5 | inactive
eIF4G2 (eukaryotic translation initiation factor 4G2) | DRSC14207 | – | – | 9044 | 5.35e5 | inactive
eIF4G2 (eukaryotic translation initiation factor 4G2) | DRSC21739 | – | – | 9042 | 5.56e5 | inactive
CG9986 | DRSC16586 | – | – | 7898 | 5.10e5 | inactive
CG31800 | DRSC22525 | – | – | 4863 | 4.46e5 | inactive
CG11145 | DRSC06049 | – | – | 5935 | 3.56e5 | inactive
eIF3a (eukaryotic translation initiation factor 3 subunit a) | DRSC12339 | – | – | 5067 | 3.58e5 | inactive
eIF3a (eukaryotic translation initiation factor 3 subunit a) | DRSC28481 | – | reporter ratio lowered past the hit cutoff | – | – | inactive
18w (18 wheeler) | DRSC05029 | – | – | 9420 | 2.87e5 | inactive
mtg (mind the gap) | DRSC16256 | – | – | 7348 | 4.92e5 | inactive
sle (slender lobes) | DRSC14557 | – | – | 8266 | 3.67e5 | inactive
